Record: PubChem BioAssay AID504744 (Drosophila RNAi Screening Center, 2011)
In all, the deposit lists about 23,000 reagents; below is a random part of those with a known target gene and a result. Of all reagents, 98 (0.43%) were called active. 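Only hit calls are given; the phospho-dAkt signals, z-scores and hit direction were not deposited.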 The numbers tell different reagents against one gene apart.

- Screen: 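Uncover factors, including feedback loops, that control dAkt activation in fly cells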 (primary screen)
- Cell system: Drosophila Kc167 cells
- Knock-down reagent: long dsRNA against Drosophila genes, 250 ng dsRNA per well of a 384-well plate
- Timing: 3 days of knock-down, then overnight serum-free starvation before stimulation
- Conditions: bovine insulin at 387 nM for 10 minutes after 12 h without serum
- Measurement: 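In-cell antibody fluorescence for phospho-dAkt in each well over DNA-dye signal, with log2 residuals expressed as z-scores adjusted for cell count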
- Hit rule: 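Under insulin, a gene counts as a hit if the average z-score of two replicates lies above 2.5 or below -2.5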

gene knocked down	reagent	call
sima (similar)	1	inactive
Ir21a (Ionotropic receptor 21a)	1	inactive
CG12991	1	inactive
CG33937 (retired record)	1	inactive
l(1)G0469 (lethal (1) G0469)	1	inactive
l(1)G0469 (lethal (1) G0469)	2	inactive
CG6908	1	inactive
CG33784	1	inactive
Vps26 (Vacuolar protein sorting 26)	1	inactive
CG34454	1	inactive
mms4 (Methyl methanesulfonate sensitivity 4)	1	inactive
sgg (shaggy)	1	inactive
sgg (shaggy)	2	inactive
sgg (shaggy)	3	inactive
Stt3B	1	inactive
pHCl-1 (pH-sensitive chloride channel 1)	1	inactive
pHCl-1 (pH-sensitive chloride channel 1)	2	inactive
pHCl-1 (pH-sensitive chloride channel 1)	3	inactive
CG7099	1	inactive
GlnRS (Glutaminyl-tRNA synthetase)	1	inactive
CG14395	1	inactive
CG5149	1	inactive
CG17202	1	inactive
SelG (Selenoprotein G)	1	inactive
CG42685	1	inactive
CG8202	1	inactive
NAT1	1	inactive
Cubn2 (Cubilin 2)	1	inactive
Cubn2 (Cubilin 2)	2	inactive
CG10344	1	inactive
Galk (Galactokinase)	1	inactive
ppl (pumpless)	1	inactive
Npc2e (Niemann-Pick type C-2e)	1	inactive
Npc2e (Niemann-Pick type C-2e)	2	inactive

Next part (3 carried over from the part before).
gene knocked down	reagent	call
ppl (pumpless)	1	inactive
Npc2e (Niemann-Pick type C-2e)	1	inactive
Npc2e (Niemann-Pick type C-2e)	2	inactive
Sys1 (Sys1 golgi trafficking protein)	1	inactive
CG15107	1	inactive
SerRS-m (Seryl-tRNA synthetase, mitochondrial)	1	inactive
CG13992	1	inactive
CG30001	1	inactive
AGBE (1,4-Alpha-Glucan Branching Enzyme)	1	inactive
GstD1 (Glutathione S transferase D1)	1	inactive
CG42346	1	inactive
CG42346	2	inactive
CG18605	1	inactive
eco (Establishment of cohesion)	1	inactive
CG15653	1	inactive
CYLD (Cylindromatosis)	1	inactive
CG8319	1	inactive
CG10467	1	inactive
Acsl (Acyl-CoA synthetase long-chain)	1	inactive
IscU (Iron-sulfur cluster assembly enzyme)	1	inactive
Hou (Houki)	1	inactive
Hou (Houki)	2	inactive
CG12224	1	inactive
CheB42b (Chemosensory protein B 42b)	1	inactive
Tapdelta (Translocon-associated protein delta)	1	inactive
Inx7 (Innexin 7)	1	inactive
Ilp5 (Insulin-like peptide 5)	1	inactive
CG30037	1	inactive
CG8435	1	inactive
mRNA-cap (mRNA-capping-enzyme)	1	inactive
pic (piccolo)	1	inactive
CG31808	1	inactive
Pgm2b (Phosphoglucomutase 2b)	1	inactive
